# Source: the supplement of paper PMC10849652
# Chains of the proteins cited; added tags and fusions are not shown. Lines headed by an entry give the natural chain unless they say otherwise; changes in a name come on top.
# UniProt O94826, whole entry, looked up: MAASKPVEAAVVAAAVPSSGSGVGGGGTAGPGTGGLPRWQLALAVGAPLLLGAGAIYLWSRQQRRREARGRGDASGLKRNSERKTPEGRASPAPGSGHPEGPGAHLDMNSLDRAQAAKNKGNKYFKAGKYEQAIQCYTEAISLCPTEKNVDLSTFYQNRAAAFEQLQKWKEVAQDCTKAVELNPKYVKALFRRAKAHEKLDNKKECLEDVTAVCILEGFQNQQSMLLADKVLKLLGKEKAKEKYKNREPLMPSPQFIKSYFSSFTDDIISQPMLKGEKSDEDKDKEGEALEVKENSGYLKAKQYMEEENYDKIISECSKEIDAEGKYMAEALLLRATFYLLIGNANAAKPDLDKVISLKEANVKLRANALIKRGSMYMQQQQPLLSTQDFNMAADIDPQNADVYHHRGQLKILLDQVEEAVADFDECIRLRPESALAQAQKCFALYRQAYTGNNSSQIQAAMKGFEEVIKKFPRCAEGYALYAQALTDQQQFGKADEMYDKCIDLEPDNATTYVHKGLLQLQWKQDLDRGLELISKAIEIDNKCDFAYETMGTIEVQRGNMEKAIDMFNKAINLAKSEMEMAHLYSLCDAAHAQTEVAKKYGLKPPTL
# UniProt Q8N4H5: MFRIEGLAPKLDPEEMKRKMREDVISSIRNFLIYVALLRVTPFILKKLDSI
# UniProt O43617, whole entry, looked up: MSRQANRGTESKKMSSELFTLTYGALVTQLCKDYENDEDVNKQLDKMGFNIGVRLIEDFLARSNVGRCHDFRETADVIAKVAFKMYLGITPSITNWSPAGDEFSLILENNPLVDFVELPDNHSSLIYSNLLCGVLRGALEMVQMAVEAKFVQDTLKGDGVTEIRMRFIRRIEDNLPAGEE
# UniProt Q9Y5L0: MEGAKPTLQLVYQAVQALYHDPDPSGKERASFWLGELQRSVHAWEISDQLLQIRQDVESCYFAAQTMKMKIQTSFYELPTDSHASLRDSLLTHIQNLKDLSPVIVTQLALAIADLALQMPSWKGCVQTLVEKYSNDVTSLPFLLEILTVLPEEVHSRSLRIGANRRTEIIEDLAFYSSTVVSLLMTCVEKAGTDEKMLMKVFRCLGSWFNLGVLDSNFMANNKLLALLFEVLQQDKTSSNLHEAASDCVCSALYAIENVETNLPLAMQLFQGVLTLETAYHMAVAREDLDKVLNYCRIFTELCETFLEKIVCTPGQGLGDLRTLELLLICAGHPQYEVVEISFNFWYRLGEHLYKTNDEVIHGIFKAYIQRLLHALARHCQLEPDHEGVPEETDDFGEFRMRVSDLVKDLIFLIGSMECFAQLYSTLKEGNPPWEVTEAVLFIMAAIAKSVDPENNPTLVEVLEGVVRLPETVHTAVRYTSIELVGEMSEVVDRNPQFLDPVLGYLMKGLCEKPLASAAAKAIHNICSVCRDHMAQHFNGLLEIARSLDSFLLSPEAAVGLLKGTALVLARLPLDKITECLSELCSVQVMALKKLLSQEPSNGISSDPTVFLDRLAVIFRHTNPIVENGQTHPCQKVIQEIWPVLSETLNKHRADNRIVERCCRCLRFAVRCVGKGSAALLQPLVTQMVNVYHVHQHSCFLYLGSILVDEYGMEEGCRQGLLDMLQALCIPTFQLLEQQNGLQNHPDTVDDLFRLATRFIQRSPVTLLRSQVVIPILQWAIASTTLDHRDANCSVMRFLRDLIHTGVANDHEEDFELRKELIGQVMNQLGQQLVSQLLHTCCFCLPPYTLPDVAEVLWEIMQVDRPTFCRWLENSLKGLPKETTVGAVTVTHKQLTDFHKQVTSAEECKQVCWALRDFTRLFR
# UniProt P11387: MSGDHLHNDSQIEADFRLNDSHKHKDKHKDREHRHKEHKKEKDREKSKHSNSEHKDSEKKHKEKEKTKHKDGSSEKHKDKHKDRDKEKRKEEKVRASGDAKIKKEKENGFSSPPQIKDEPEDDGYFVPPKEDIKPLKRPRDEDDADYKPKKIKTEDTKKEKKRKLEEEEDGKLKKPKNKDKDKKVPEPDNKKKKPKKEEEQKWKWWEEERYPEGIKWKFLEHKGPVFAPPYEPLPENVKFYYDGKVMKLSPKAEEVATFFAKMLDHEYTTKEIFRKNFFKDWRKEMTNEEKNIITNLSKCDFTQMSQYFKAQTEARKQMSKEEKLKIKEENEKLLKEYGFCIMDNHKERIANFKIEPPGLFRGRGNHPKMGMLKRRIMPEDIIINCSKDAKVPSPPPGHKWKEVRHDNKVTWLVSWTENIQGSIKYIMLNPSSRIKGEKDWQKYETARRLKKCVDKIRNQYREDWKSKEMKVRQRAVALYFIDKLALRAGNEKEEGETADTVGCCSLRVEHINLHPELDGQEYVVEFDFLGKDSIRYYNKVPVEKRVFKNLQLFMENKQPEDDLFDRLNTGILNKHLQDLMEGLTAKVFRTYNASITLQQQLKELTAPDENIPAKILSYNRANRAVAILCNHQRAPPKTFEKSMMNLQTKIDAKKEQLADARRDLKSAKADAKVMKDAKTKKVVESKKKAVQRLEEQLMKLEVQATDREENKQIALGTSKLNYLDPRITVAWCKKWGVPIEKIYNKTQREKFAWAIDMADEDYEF
# UniProt Q8IZ69: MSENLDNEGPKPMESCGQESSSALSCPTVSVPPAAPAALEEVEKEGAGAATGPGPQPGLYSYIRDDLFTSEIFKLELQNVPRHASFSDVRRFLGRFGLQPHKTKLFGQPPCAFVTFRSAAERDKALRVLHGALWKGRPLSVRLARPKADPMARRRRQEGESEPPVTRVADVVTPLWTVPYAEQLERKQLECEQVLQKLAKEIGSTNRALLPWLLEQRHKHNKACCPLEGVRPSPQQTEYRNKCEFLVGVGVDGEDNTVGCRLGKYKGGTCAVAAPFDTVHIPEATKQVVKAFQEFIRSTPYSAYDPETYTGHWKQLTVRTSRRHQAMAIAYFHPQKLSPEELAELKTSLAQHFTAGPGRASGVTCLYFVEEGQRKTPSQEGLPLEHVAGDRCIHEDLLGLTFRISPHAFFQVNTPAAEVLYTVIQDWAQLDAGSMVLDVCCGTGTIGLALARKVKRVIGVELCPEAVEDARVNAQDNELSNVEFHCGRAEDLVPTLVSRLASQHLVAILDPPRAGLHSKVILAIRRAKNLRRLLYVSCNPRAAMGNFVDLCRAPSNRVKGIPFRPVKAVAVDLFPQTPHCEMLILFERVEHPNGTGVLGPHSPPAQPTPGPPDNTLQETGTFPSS
# UniProt O75674: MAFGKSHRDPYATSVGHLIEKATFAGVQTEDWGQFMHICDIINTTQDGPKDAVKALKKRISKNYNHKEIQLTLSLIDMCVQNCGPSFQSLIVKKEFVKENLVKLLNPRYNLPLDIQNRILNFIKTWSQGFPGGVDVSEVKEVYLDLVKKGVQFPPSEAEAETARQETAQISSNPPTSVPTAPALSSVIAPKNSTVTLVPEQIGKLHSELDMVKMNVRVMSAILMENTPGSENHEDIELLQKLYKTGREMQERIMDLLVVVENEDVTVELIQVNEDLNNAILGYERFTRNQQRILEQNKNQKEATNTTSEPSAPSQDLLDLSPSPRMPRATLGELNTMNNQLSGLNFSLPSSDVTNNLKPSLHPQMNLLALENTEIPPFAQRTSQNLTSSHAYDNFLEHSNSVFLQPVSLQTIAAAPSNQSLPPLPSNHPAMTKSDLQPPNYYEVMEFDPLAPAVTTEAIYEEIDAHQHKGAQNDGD
# UniProt O60784, whole entry, looked up: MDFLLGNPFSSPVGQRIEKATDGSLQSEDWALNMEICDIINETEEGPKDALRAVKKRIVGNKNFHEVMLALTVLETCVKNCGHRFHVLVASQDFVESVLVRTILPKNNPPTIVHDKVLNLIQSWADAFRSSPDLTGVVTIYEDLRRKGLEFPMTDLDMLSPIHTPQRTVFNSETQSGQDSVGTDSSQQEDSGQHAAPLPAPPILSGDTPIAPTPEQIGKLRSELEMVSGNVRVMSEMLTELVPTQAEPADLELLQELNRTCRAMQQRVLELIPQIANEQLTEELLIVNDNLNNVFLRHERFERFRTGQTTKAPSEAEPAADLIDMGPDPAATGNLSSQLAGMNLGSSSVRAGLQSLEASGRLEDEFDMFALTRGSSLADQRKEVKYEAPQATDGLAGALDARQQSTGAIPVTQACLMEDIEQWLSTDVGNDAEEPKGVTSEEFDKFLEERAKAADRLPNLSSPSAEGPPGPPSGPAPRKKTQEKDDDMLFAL
# UniProt Q15642: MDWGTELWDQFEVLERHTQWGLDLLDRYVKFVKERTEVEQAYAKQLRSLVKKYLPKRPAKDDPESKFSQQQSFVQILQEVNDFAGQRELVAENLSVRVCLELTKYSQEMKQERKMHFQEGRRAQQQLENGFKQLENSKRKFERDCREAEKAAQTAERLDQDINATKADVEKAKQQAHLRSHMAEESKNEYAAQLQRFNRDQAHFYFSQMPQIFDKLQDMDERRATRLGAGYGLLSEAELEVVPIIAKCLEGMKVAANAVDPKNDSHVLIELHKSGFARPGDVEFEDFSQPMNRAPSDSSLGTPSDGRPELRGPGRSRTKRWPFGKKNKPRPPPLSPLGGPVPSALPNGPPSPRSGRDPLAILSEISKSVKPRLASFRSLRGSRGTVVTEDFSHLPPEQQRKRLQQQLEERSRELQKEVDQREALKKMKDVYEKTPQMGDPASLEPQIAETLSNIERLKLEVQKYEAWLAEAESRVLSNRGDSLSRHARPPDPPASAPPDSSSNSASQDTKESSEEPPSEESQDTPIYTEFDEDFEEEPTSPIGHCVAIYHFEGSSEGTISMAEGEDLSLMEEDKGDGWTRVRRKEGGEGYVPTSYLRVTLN
# UniProt P67936, whole entry, looked up: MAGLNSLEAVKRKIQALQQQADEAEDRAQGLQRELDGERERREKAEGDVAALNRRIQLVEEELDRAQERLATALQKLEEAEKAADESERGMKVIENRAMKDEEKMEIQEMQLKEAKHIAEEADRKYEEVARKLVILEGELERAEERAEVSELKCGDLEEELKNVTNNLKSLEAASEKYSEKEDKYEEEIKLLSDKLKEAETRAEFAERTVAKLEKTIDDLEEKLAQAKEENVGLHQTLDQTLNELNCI
# UniProt P07951, whole entry, looked up: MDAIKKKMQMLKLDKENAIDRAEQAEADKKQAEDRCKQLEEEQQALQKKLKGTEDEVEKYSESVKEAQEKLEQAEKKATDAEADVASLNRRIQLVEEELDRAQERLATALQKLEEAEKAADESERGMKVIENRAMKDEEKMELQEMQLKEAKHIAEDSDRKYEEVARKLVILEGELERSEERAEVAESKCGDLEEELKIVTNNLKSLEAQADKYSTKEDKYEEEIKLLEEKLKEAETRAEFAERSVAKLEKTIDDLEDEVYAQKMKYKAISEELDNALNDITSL
# UniProt Q9NXH9: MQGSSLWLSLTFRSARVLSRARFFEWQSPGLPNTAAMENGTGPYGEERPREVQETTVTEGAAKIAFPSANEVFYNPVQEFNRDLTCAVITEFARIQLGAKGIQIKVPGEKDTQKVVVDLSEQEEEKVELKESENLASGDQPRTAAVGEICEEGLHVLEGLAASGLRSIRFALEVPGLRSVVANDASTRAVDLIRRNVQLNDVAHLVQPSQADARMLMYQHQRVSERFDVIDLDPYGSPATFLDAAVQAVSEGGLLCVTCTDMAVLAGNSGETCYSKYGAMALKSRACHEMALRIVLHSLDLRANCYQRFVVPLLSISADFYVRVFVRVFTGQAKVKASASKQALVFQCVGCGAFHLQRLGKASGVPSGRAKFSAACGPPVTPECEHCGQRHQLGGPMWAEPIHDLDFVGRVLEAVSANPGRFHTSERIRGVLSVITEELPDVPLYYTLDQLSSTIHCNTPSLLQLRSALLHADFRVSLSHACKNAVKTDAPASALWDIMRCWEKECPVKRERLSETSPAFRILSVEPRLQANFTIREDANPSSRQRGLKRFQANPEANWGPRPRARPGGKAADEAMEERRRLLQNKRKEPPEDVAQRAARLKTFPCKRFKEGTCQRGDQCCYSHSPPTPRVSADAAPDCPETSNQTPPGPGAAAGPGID
# UniProt P13693: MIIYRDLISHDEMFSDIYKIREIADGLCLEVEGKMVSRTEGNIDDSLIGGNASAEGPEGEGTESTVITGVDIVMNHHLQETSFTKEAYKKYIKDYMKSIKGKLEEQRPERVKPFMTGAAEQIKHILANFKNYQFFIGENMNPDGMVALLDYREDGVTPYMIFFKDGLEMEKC
# UniProt A5PLN9: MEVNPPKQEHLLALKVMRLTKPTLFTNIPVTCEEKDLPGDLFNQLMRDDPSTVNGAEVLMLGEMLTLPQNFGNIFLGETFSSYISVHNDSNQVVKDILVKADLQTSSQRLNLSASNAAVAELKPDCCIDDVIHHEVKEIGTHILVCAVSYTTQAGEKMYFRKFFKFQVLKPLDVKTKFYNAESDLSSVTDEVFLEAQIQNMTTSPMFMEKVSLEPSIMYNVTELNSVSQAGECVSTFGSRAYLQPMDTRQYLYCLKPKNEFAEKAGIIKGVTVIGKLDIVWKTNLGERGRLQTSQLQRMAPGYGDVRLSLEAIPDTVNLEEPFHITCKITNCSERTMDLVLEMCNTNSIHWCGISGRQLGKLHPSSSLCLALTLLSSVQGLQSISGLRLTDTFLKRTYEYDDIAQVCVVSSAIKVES
# Some of the results follow.
# How the values were obtained:
# Assay in all cases: log2 fold change, soluble protein after heating vs DMSO (PISA); higher = thermal stabilisation; K562 cells, 10 uM, 30 min; active = over 0.2 and 3.5 SD of the protein, either way, in both replicates (recomputed)
# [1] = compound: COC1=CC=C(C=C1)CN2C=CC3=C2C=C(C=C3)C(=O)NO
# In short: (§1)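 Values are thermal stability changes relative to control samples and are taken from duplicates. They are stated as log2 fold changes. Before quantification by TMTpro 16plex LC-MS/MS with equalised channel sums, K562 cells at 2×10^6 cells/mL were treated with 10 μM compound for 30 min, heated in aliquots for 3 min across 48°C-58°C, pooled, extracted in PBS with 0.5% NP-40 at 4°C, and centrifuged at 21,000xg for 90 min to give the soluble supernatant.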
# [2] = compound: CON(C)C(=O)N1N=C(c2cc(F)ccc2F)S[C@@]1(CCCN)c1ccccc1 [filanesib]
# In short: as §1
# [3] = compound: CO[C@H]1C[C@@H]2CC[C@@H](C)[C@@](O)(O2)C(=O)C(=O)N2CCCC[C@H]2C(=O)O[C@H]([C@H](C)C[C@@H]2CC[C@H](n3cnnn3)[C@H](OC)C2)CC(=O)[C@H](C)/C=C(\C)[C@@H](O)[C@@H](OC)C(=O)[C@H](C)C[C@H](C)/C=C/C=C/C=C/1C [zotarolimus]
# In short: as §1
# [4] = compound: COc1cc(C(=O)O)ccc1NC(=O)[C@@H]1N[C@@H](CC(C)(C)C)[C@](C#N)(c2ccc(Cl)cc2F)[C@H]1c1cccc(Cl)c1F [idasanutlin]
# In short: as §1
# [5] = compound: COc1cc(Nc2ncc3c(n2)-c2ccc(Cl)cc2C(c2c(F)cccc2OC)=NC3)ccc1C(=O)O [alisertib]
# In short: as §1
# [6] = compound: COc1cc2nc(-c3cc(F)ccc3O)nc(N[C@@H]3CNC[C@H]3C(C)(C)O)c2cc1OC
# In short: as §1
# [7] = compound: COc1cc2ncnc(Nc3ccc(F)c(Cl)c3)c2cc1OCCCN1CCOCC1 [gefitinib]
# In short: as §1
# [8] = compound: COc1cccc2cc(-c3nc([C@H]4CC[C@H](C(=O)O)CC4)n4ncnc(N)c34)[nH]c12
# In short: as §1
# [9] = compound: CS(=O)(=O)CCNCc1ccc(-c2ccc3ncnc(Nc4ccc(OCc5cccc(F)c5)c(Cl)c4)c3c2)o1 [lapatinib]
# In short: as §1
# [10] = compound: CS(=O)(=O)N1CCN(Cc2cc3nc(-c4cccc5[nH]ncc45)nc(N4CCOCC4)c3s2)CC1 [pictilisib]
# In short: as §1
# [11] = compound: CS(=O)(=O)c1ccc(-c2cnc(N)c(C(=O)Nc3ccccc3)n2)cc1
# In short: as §1
# [12] = compound: C[C@@H](Oc1cc(-c2cnn(C3CCNCC3)c2)cnc1N)c1c(Cl)ccc(F)c1Cl [crizotinib]
# In short: as §1
# [13] = compound: C[C@@H]1COCCN1C2=NC(=NC(=C2)C3(CC3)S(=O)(=O)C)C4=C5C=CNC5=CC=C4
# In short: as §1
# [14] = compound: C[C@H](C1=CC=C(C=C1)C(=O)NC2=C3C=CNC3=NC=C2)N
# In short: as §1
# [15] = compound: C[C@H](Nc1ncnc2nc[nH]c12)c1cc2cccc(Cl)c2c(=O)n1-c1ccccc1 [duvelisib]
# In short: as §1
# [16] = compound: Cc1cc(Nc2cc(CN3CCOCC3)c3nc(C)c(Cc4ccc(Cl)cc4F)n3n2)n[nH]1 [gandotinib]
# In short: as §1
# [17] = compound: Cc1cc(Nc2cc(N3CCN(C)CC3)nc(Sc3ccc(NC(=O)C4CC4)cc3)n2)n[nH]1 [tozasertib]
# In short: as §1
# [18] = compound: Cc1cc(SCc2sc(-c3ccc(C(F)(F)F)cc3)nc2C)ccc1OCC(=O)O
# In short: as §1
# [19] = compound: Cc1ccc(-n2nc(C(C)(C)C)cc2NC(=O)Nc2ccc(OCCN3CCOCC3)c3ccccc23)cc1 [doramapimod]
# In short: as §1
# [20] = compound: Cc1ccc(C(=O)N(CCCN)[C@@H](c2nc3cc(Cl)ccc3c(=O)n2Cc2ccccc2)C(C)C)cc1 [ispinesib]
# In short: as §1
Target,log2 fold change [1],log2 fold change [2],log2 fold change [3],log2 fold change [4],log2 fold change [5],log2 fold change [6],log2 fold change [7],log2 fold change [8],log2 fold change [9],log2 fold change [10],log2 fold change [11],log2 fold change [12],log2 fold change [13],log2 fold change [14],log2 fold change [15],log2 fold change [16],log2 fold change [17],log2 fold change [18],log2 fold change [19],log2 fold change [20]
TOMM70 (UniProt O94826),inactive: 0.004,inactive: -0.008,inactive: 0.049,inactive: -0.025,inactive: 0.09,inactive: 0.072,inactive: 0.03,inactive: -0.025,inactive: -0.046,inactive: -0.002,inactive: -0.009,inactive: 0.019,inactive: 0.072,inactive: -0.012,inactive: 0.041,inactive: -0.042,inactive: -0.025,inactive: 0.053,inactive: -0.036,inactive: 0.04
TOMM5 isoform 2 (UniProt Q8N4H5),inactive: -0.027,inactive: 0.079,inactive: 0.045,inactive: 0.137,inactive: -0.141,inactive: -0.021,inactive: 0.073,inactive: 0.044,inactive: -0.016,inactive: -0.086,inactive: 0.043,inactive: 0.139,inactive: 0.124,inactive: -0.053,,inactive: 0.136,,inactive: -0.023,inactive: -0.078,inactive: -0.051
TOP2A isoform 4 (UniProt P11388),inactive: 0.052,inactive: 0.486,inactive: 0.079,inactive: 0.24,inactive: -0.144,inactive: -0.029,inactive: -0.042,inactive: -0.4,inactive: 0.13,inactive: -0.071,inactive: -0.071,inactive: -0.157,inactive: -0.337,inactive: 0.559,,inactive: 0.158,,inactive: 0.015,inactive: 0.362,inactive: -0.376
TRAPPC3 (UniProt O43617),inactive: -0.141,inactive: -0.069,inactive: -0.037,inactive: -0.025,inactive: -0.055,inactive: 0.012,inactive: 0.007,inactive: 0.067,inactive: 0.023,inactive: 0.023,inactive: -0.003,inactive: 0.002,inactive: 0.074,inactive: -0.006,,inactive: -0.048,,inactive: 0.017,inactive: -0.008,inactive: -0.023
TNPO3 (UniProt Q9Y5L0),inactive: 0.053,inactive: -0.094,inactive: 0.036,inactive: -0.074,inactive: -0.064,inactive: -0.035,inactive: -0.012,inactive: -0.004,inactive: -0.035,inactive: 0.077,inactive: -0.028,inactive: -0.151,inactive: 0.025,inactive: -0.124,,inactive: -0.143,,inactive: 0.046,inactive: -0.046,inactive: 0.008
TRIM28 (UniProt Q13263),inactive: 0.015,inactive: -0.017,inactive: 0.046,inactive: -0.031,inactive: -0.087,inactive: 0.003,inactive: 0.002,inactive: -0.03,inactive: -0.005,inactive: 0.033,inactive: -0.001,inactive: 0.046,inactive: 0.048,inactive: -0.068,,inactive: -0.033,,inactive: 0.039,inactive: -0.036,inactive: -0.007
TOP1 (UniProt P11387),inactive: 0,inactive: 0.247,inactive: 0.112,inactive: 0.15,inactive: -0.065,inactive: 0.019,inactive: -0.098,inactive: -0.103,inactive: 0.038,inactive: -0.135,inactive: 0.045,inactive: -0.137,inactive: 0.042,inactive: 0.645,inactive: -0.064,inactive: 0.033,inactive: -0.072,inactive: 0.107,inactive: 0.201,inactive: -0.207
TRMT2A (UniProt Q8IZ69),active: -0.322,inactive: 0.061,inactive: 0.016,inactive: 0.04,inactive: -0.051,inactive: -0.158,inactive: -0.006,inactive: -0.071,inactive: 0.016,inactive: -0.096,inactive: -0.034,inactive: -0.016,inactive: -0.072,inactive: 0.152,,inactive: 0.019,,inactive: 0.045,inactive: 0.07,inactive: -0.122
TOM1L1 (UniProt O75674),inactive: -0.006,inactive: 0.06,inactive: 0.008,inactive: -0.142,inactive: -0.073,inactive: 0.061,inactive: 0.056,inactive: -0.051,inactive: -0.007,inactive: -0.076,inactive: -0.001,inactive: 0.08,inactive: 0.184,inactive: -0.059,,active: -0.342,,inactive: 0.011,inactive: -0.021,inactive: -0.016
TOM1 isoform 2 (UniProt O60784),inactive: -0.118,inactive: -0.031,inactive: -0.001,inactive: 0.056,inactive: -0.002,inactive: -0.039,inactive: -0.031,inactive: 0,inactive: 0.014,inactive: -0.154,inactive: 0.146,inactive: -0.002,inactive: 0.035,inactive: -0.096,,inactive: 0.101,,inactive: 0.023,inactive: -0.078,inactive: -0.043
TRIP10 (UniProt Q15642),inactive: 0.054,inactive: 0.01,inactive: -0.007,inactive: -0.061,inactive: -0.026,inactive: 0.083,inactive: -0.014,inactive: -0.04,inactive: 0.021,inactive: 0.033,inactive: 0.08,inactive: -0.009,inactive: -0.085,inactive: -0.026,,inactive: 0.044,,inactive: 0.038,inactive: -0.036,inactive: -0.021
TOE1 (UniProt Q96GM8),inactive: -0.06,inactive: 0.246,inactive: 0.023,inactive: 0.032,inactive: -0.075,inactive: 0.039,inactive: 0.014,inactive: -0.162,inactive: 0.076,inactive: -0.054,inactive: 0.013,inactive: 0,inactive: -0.221,inactive: 0.211,,inactive: 0.219,,inactive: 0.066,inactive: 0.065,inactive: -0.021
TNNC2 (UniProt P02585),inactive: -0.037,inactive: 0.038,inactive: -0.006,inactive: 0.007,inactive: -0.172,inactive: 0.014,inactive: 0.008,inactive: 0.045,inactive: -0.027,inactive: 0.025,inactive: -0.004,inactive: 0.06,inactive: 0.04,inactive: -0.005,,inactive: 0.078,active: -1.1,inactive: -0.059,inactive: -0.014,inactive: 0.022
TPM4 isoform 2 (UniProt P67936),inactive: -0.036,inactive: -0.125,inactive: 0.006,inactive: -0.132,inactive: -0.005,inactive: -0.237,inactive: 0.058,inactive: 0.021,inactive: 0.211,inactive: 0.035,inactive: -0.088,inactive: 0.003,inactive: -0.034,inactive: 0.1,inactive: -0.122,inactive: -0.037,inactive: 0.032,inactive: -0.172,inactive: -0.057,inactive: -0.013
TPM2 (UniProt P07951),active: 0.503,inactive: -0.024,inactive: 0.013,inactive: -0.026,inactive: -0.058,inactive: -0.055,inactive: -0.003,inactive: -0.14,inactive: 0.166,inactive: -0.181,inactive: -0.016,inactive: -0.012,inactive: -0.167,inactive: -0.29,,inactive: -0.046,,inactive: -0.117,inactive: 0.059,inactive: 0.122
TRMT1 (UniProt Q9NXH9),inactive: -0.038,inactive: -0.035,inactive: -0.012,inactive: -0.02,inactive: -0.082,inactive: -0.008,inactive: -0.005,inactive: 0.026,inactive: 0,inactive: -0.003,inactive: -0.001,inactive: 0.029,inactive: 0.022,inactive: 0,inactive: 0.02,inactive: 0.023,inactive: -0.042,inactive: -0.047,inactive: -0.035,inactive: 0.015
TPT1 (UniProt P13693),inactive: 0.036,inactive: -0.089,inactive: 0.016,inactive: -0.032,inactive: 0.018,inactive: -0.016,inactive: -0.014,inactive: -0.014,inactive: 0.01,inactive: 0.036,inactive: 0.075,inactive: -0.096,inactive: 0.031,inactive: -0.033,inactive: -0.027,inactive: -0.055,inactive: -0.018,inactive: 0.027,inactive: -0.002,inactive: 0.091
TRAPPC13 isoform 5 (UniProt A5PLN9),inactive: 0.094,inactive: 0.052,inactive: 0.045,inactive: -0.016,inactive: -0.123,inactive: 0.009,inactive: 0.005,inactive: -0.046,inactive: 0.116,inactive: 0.015,inactive: -0.037,inactive: -0.054,inactive: 0.067,inactive: 0.009,,inactive: -0.007,,inactive: 0.087,inactive: 0.047,inactive: 0.032

# Single entries from above:
# log2 fold change [6] with TNPO3 (UniProt Q9Y5L0) is entered as inactive: -0.035
# log2 fold change [4] with TRIP10 (UniProt Q15642) is entered as inactive: -0.061
